These are yes or no findings as the source states them, for the method shown. Some results given as binding are weak or reduced against the parent protein; the word gives no strength.
What was measured:
Assay in all cases: two-hybrid; AD (pGAD-C(1)) and BD (pGBD-C(1)) fusions in yeast PJ69-4; dual transformants tested on media lacking leucine, tryptophan and adenine; positive if all tested colonies (4 to 10) grew; both combinations of clones tested whenever possible
[1] = biological target: T1, AtCPSF30 (Arabidopsis) (UniProt A9LNK9)
T1 sequence: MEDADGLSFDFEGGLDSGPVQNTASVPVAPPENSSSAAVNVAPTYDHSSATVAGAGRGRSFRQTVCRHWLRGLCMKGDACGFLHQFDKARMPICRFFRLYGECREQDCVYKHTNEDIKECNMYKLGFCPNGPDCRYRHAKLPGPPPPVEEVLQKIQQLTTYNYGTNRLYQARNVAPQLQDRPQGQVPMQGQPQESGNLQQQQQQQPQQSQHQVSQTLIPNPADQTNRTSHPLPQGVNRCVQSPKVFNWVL

[2] = biological target: T2, AtPCFS5 (Arabidopsis) (UniProt Q9FIX8)
T2 sequence: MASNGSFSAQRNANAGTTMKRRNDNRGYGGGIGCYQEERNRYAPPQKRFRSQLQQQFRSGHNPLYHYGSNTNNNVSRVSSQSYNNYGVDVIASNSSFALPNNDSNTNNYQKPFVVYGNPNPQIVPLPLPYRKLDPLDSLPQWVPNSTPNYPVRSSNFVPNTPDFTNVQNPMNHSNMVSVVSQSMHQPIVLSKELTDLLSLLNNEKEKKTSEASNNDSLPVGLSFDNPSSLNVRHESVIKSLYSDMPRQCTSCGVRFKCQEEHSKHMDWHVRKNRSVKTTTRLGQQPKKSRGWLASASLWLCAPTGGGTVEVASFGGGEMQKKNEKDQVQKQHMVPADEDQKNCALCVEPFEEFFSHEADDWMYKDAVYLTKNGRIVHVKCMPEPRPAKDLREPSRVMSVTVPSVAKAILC

[3] = biological target: T3, AtPCFS1 (Arabidopsis) (UniProt Q9C710)
T3 sequence: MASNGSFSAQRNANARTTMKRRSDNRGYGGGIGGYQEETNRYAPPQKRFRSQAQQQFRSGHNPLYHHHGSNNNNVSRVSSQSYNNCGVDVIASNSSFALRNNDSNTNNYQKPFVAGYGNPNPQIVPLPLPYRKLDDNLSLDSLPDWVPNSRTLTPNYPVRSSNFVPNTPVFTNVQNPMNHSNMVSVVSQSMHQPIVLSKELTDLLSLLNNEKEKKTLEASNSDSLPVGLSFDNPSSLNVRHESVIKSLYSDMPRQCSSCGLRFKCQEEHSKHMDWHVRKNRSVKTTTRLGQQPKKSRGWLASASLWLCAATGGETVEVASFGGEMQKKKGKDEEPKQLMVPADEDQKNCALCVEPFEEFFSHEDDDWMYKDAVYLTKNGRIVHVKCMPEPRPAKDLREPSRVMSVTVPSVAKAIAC

[4] = biological target: T4, AtFIPS5 (Arabidopsis) (UniProt F4KDH9)
T4 sequence: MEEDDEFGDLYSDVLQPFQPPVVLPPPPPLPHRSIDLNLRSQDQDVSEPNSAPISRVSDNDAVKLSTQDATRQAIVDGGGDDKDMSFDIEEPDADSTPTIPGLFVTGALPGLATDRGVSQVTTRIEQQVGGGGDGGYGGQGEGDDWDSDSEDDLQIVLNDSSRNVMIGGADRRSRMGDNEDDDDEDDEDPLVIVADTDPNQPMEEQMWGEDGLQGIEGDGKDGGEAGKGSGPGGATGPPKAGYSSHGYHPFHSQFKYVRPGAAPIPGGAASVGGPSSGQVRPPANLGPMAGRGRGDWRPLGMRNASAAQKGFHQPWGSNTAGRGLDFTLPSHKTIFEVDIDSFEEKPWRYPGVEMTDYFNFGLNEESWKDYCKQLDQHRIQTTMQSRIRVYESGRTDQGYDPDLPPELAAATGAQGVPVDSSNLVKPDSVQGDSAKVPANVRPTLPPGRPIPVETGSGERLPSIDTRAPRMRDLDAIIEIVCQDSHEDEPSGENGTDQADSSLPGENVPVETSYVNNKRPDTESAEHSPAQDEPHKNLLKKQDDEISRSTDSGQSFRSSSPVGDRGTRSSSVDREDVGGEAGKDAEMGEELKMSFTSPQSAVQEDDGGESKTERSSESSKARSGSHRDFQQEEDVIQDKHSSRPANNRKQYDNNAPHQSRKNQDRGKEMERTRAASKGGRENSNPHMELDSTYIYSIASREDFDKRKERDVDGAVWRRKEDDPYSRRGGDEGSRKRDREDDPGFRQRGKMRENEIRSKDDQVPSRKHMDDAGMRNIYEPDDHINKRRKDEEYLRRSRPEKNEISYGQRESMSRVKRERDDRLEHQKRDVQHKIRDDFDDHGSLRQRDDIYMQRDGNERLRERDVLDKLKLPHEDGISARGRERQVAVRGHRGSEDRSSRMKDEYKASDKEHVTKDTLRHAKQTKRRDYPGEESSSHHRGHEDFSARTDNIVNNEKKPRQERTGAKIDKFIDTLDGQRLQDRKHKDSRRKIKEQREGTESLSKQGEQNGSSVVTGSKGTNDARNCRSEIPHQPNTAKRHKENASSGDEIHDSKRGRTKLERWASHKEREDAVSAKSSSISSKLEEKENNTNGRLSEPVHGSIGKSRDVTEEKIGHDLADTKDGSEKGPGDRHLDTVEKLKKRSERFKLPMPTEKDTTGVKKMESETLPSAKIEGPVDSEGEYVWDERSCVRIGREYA

B1: AtCFIS1 (protein, UniProt Q94AF0 1-222)
chain: MGEEARALDMEEISDNTTRRNDVVHDLMVDLYPLSSYYFGSKEALRVKDEIISDRVIRLKSNYAAHGLRTCVEAVLLVELFKHPHVLLLQYRNSIFKLPGGRLRPGESDIEGLKRKLASKLSVNENVGVSGYEVGECIGMWWRPNFETLMYPFLPPNIKHPKECTKLFLVRLPVHQQFVVPKNFKLLAVPLCQLHENEKTYGPIMSQIPKLLSKFSFNMMEI
[1]
  binding: no binding
[2]
  binding: no binding
[3]
  binding: no binding
[4]
  binding: binds

B2: AtCFIS2 (protein, UniProt Q8GXS3 1-200)
chain: MAMSQVVNTYPLSNYSFGTKEPKLEKDTSVADRLARMKINYMKEGMRTSVEGILLVQEHNHPHILLLQIGNTFCKLPGGRLKPGENEADGLKRKLTSKLGGNSAALVPDWTVGECVATWWRPNFETMMYPYCPPHITKPKECKRLYIVHLSEKEYFAVPKNLKLLAVPLFELYDNVQRYGPVISTIPQQLSRFHFNMISS
[1]
  binding: binds
[2]
  binding: no binding
[3]
  binding: no binding
[4]
  binding: binds

B3: AtCPSF30 (protein, UniProt A9LNK9-2 1-250)
chain: T1 sequence
[1]
  binding: binds
[2]
  binding: binds
[3]
  binding: binds
[4]
  binding: binds
